Among the data in PubChem BioAssay AID274 (DTP/NCI, 2004) are survivor count and T/C values, retold here.

The subject of this test is BDF1 mice, Lewis lung carcinoma iv, survival T/C. Briefly: NCI In Vivo Anticancer Drug Screen. Data for tumor model Lewis Lung Carcinoma (intravenous) in B6D2F1 (BDF1) mice. The settings on record: T/C endpoint: median survival time, higher T/C = longer survival. As to the method:
The antitumor activity of compounds was measured in mice bearing transplantable tumors. Survival or tumor size were measured and the results are expressed as the measurement made in the treated group (T) divided by the measurement made in the vehicle treated control group (C). The tumor model used in this assay is Lewis Lung Carcinoma (intravenous) in B6D2F1 (BDF1) mice

[1] abbreviates: dose: 2.78 mg/kg/injection, schedule: Q04DX003 (ip), vehicle: saline.
The mark [2] stands for this setting: dose: 4.63 mg/kg/injection, schedule: Q04DX003 (ip), vehicle: saline.
The mark [3] stands for this setting: dose: 600.0 micrograms/kg/injection, schedule: Q01DX009 (ip), vehicle: saline.
The mark [4] stands for this setting: dose: 1000.0 micrograms/kg/injection, schedule: Q01DX009 (ip), vehicle: saline.
The mark [5] stands for this setting: dose: 1670.0 micrograms/kg/injection, schedule: Q01DX009 (ip), vehicle: saline.
Setting [6] is: dose: 25.0 mg/kg/injection, schedule: Q01DX009 (ip), vehicle: saline with Tween-80.
Setting [7] is: dose: 50.0 mg/kg/injection, schedule: Q01DX009 (ip), vehicle: saline with Tween-80.
Setting [8] is: dose: 2.0 mg/kg/injection, schedule: Q01DX009 (ip), vehicle: saline.
[9] abbreviates: dose: 100.0 mg/kg/injection, schedule: Q01DX009 (ip), vehicle: saline with Tween-80.
Setting [10] is: dose: 200.0 mg/kg/injection, schedule: Q01DX009 (ip), vehicle: saline with Tween-80.
[11] abbreviates: dose: 400.0 mg/kg/injection, schedule: Q01DX009 (ip), vehicle: saline.
Where [12] appears, read: dose: 200.0 mg/kg/injection, schedule: Q01DX009 (ip), vehicle: saline.
Where [13] appears, read: dose: 2.0 mg/kg/injection, schedule: Q01DX009 (ip), vehicle: water.

The list is a part of this screen's results and no random one: it is rich in T/C values a quarter to a half above the control, in often repeated tests (any T/C) and in doses without a T/C. Other doses and runs of a compound stand elsewhere. T/C: endpoint of the treated group in % of that of the vehicle group. Some entries give survivors of the animals treated and no T/C: the source files T/C as zero there, which appears to mark a toxic dose or a test without result, not a measured value. Some doses without a T/C left all or most animals alive at the check, yet need not have been tolerated: the source hardly ever lists a survival T/C far under the control, and the zero likely stands for such cases as well. Survivors were counted at the toxicity check, usually on the fifth day, unless a day is given; later deaths do not show. Schedules are NCI's codes, read here as Q, the interval in days (D) or hours (H), X, the number of doses. Some entries hold several experiments; the values are given in rising order. Some molecules as drawn cover several salts, stereoisomers or complexes of the source; a dose is that of the sample tested. Signs of the kind (2×) give the number of equal values in this list. For survival time, the PubChem record calls one and a half times the control and up active, and a quarter to a half above the control has no call in these data; cut-offs in other NCI protocols can differ. Some T/C values are followed by the survivors on the day toxicity was checked, most often the fifth; without a count, all were alive then.

Regarding `CCC1(O)CC2CN(CCc3c([nH]c4ccccc34)C(C(=O)OC)(c3cc4c(cc3OC)N(C)C3C(O)(C(N)=O)C(O)C5(CC)C=CCN6CCC43C65)C2)C1` (stereo unspecified) (tested in a mixture with another compound), the survivor count by setting is: under setting [1], 8 of 8; under setting [2], 8 of 8; under setting [3], 8 of 8; under setting [4], 7 of 8; under setting [5], 8 of 8.

On to `CN=C(N)N/N=C(\c1ccccc1)c1ccc(Br)cc1`, for which the survivor count was 10 of 10 under setting [6] and 8 of 10 under setting [7].

Consider `OC(C1CO1)C(O)C1CO1` (stereo unspecified), for which the T/C was 131 % of control under setting [8] and 140 % of control (dose: 4.0 mg/kg/injection, schedule: Q01DX009 (ip), vehicle: saline). Also, the survivor count was 10 of 10 (dose: 8.0 mg/kg/injection, schedule: Q01DX009 (ip), vehicle: saline) and 7 of 9 (dose: 16.0 mg/kg/injection, schedule: Q01DX009 (ip), vehicle: saline).

Turning to `CN=C(N)N/N=C(\C)c1ccc2oc3ccc(/C(C)=N/NC(N)=NC)cc3c2c1`, the survivor count by setting is: under setting [7], 10 of 10; under setting [9], 5 of 10; under setting [10], 0 of 10.

Consider `c1cc2n(n1)CCN2`, for which, under setting [11], the survivor count is reported as 0 of 10.

Take `NC(=O)c1csc(C2OC(CO)C(O)C2O)n1` (stereo unspecified): the survivor count (dose: 800.0 mg/kg/injection, schedule: Q01DX009 (ip), vehicle: water) was 10 of 10.

For `CSc1ccc2c(c1)C(N1CCN(C)CC1)Cc1ccccc1S2` (stereo unspecified), the survivor count (dose: 3.12 mg/kg/injection, schedule: Q01DX009 (ip), vehicle: saline with Tween-80) was 6 of 10; the survivor count (dose: 6.25 mg/kg/injection, schedule: Q01DX009 (ip), vehicle: saline with Tween-80) was 8 of 10; the survivor count (dose: 12.5 mg/kg/injection, schedule: Q01DX009 (ip), vehicle: saline with Tween-80) was 2 of 10; the survivor count under setting [6] is recorded as 0 of 10; the survivor count under setting [7] is given as 0 of 10.

`CCC(C(=O)O)C(=O)O.[NH-]CC1CCCC[N-]1.[Pt+2]`: the T/C (dose: 100.0 mg/kg/injection, schedule: Q01DX009 (ip), vehicle: saline) was 127 and 146 % of control [8 of 10 alive]. Besides, the survivor count reads like this: under setting [12], 4 of 10 and 10 of 10; under setting [11], 1 of 10.

As for `O[C@H](CN1CC1)[C@@H](O)CN1CC1`, where the note is “dose: 0.5 mg/kg/injection, schedule: Q01DX009 (ip), vehicle: saline”, the T/C was 134 % of control. The survivor count reads like this: (dose: 1.0 mg/kg/injection, schedule: Q01DX009 (ip), vehicle: saline) 10 of 10; under setting [8], 10 of 10.

Take `CC1(CO)C(O)CCC2(C)C1CCC1CC3CC12CCC3(O)CO` (stereo unspecified): the survivor count is, setting by setting: (dose: 18.75 mg/kg/injection, schedule: Q01DX009 (ip), vehicle: saline with Tween-80) 10 of 10; (dose: 37.5 mg/kg/injection, schedule: Q01DX009 (ip), vehicle: saline with Tween-80) 10 of 10; (dose: 75.0 mg/kg/injection, schedule: Q01DX009 (ip), vehicle: saline with Tween-80) 10 of 10; (dose: 150.0 mg/kg/injection, schedule: Q01DX009 (ip), vehicle: saline with Tween-80) 9 of 10. Besides, the T/C is 125 % of control [9 of 10 alive] under setting [7] and 126 % of control under setting [9].

As for `CCN(CC)CCOC(=O)Cc1cccc2c(=O)cc(-c3ccccc3)oc12`, the survivor count by setting is: under setting [12], 7 of 10; under setting [11], 0 of 10.

Take `CC(=O)CC(C)=O.CC(=O)CC(C)=O.O=N[O-].O=N[O-].[Co]`: the survivor count under setting [9] is listed as 6 of 10 and the survivor count under setting [10] is reported as 0 of 10.

For `CCC1(O)CC2CN(CCc3c([nH]c4ccccc34)C(C(=O)OC)(c3cc4c(cc3OC)N(C)C3C(O)(C(=O)NCCO)C(O)C5(CC)C=CCN6CCC43C65)C2)C1` (stereo unspecified), under setting [1], the T/C was 131 % of control. The survivor count under setting [2] is 8 of 8, the survivor count under setting [3] is reported as 8 of 8, the survivor count under setting [4] was 8 of 8 and the survivor count under setting [5] was 5 of 8.

Take `CC[C@@]1(O)C[C@H](OC2CC(N(C)C)C(OC3CC(O)C(OC4CCC(=O)C(C)O4)C(C)O3)C(C)O2)c2c(cc3c(c2O)C(=O)c2c(O)ccc(O)c2C3=O)[C@H]1C(=O)OC` (stereo partly specified): the T/C by setting is: (dose: 1.0 mg/kg/injection, schedule: Q01DX009 (ip), vehicle: water) 125 % of control; (dose: 1.26 mg/kg/injection, schedule: Q01DX009 (ip), vehicle: water) 126 % of control; (dose: 1.8 mg/kg/injection, schedule: Q01DX009 (ip), vehicle: water) 131 % of control; under setting [13], 131 % of control; (dose: 2.74 mg/kg/injection, schedule: Q04DX003 (ip), vehicle: water) 126 % of control; (dose: 5.6 mg/kg/injection, schedule: Q04DX003 (ip), vehicle: water) 130 % of control. Moreover, the T/C (dose: 9.8 mg/kg/injection, schedule: Q01DX001 (ip), vehicle: water) was 136 % of control. The survivor count by setting is: under setting [13], 10 of 10; (dose: 2.57 mg/kg/injection, schedule: Q01DX009 (ip), vehicle: water) 8 of 8; (dose: 3.67 mg/kg/injection, schedule: Q01DX009 (ip), vehicle: water) 8 of 8; (dose: 4.0 mg/kg/injection, schedule: Q01DX009 (ip), vehicle: water) 10 of 10 (2×); (dose: 8.0 mg/kg/injection, schedule: Q01DX009 (ip), vehicle: water) 6 of 10; (dose: 8.0 mg/kg/injection, schedule: Q04DX003 (ip), vehicle: water) 8 of 8 (2×). In addition, the survivor count runs as follows: (dose: 13.3 mg/kg/injection, schedule: Q04DX003 (ip), vehicle: water) 8 of 8; (dose: 14.0 mg/kg/injection, schedule: Q01DX001 (ip), vehicle: water) 8 of 8; (dose: 20.0 mg/kg/injection, schedule: Q01DX001 (ip), vehicle: water) 5 of 8; (dose: 22.2 mg/kg/injection, schedule: Q04DX003 (ip), vehicle: water) 3 of 8.

Take `CCOC(=O)C1C2OC(=O)C(C(=O)C2CN(CCCl)CCCl)C1C1CC=C(CC2=CCC(C3C4C(=O)OC(C(CN(CCCl)CCCl)C4=O)C3C(=O)OCC)CC2)CC1` (stereo unspecified): the survivor count (dose: 200.0 mg/kg/injection, schedule: Q01DX009 (ip), vehicle: Klucel (hydroxypropylcellulose) (HPC)) is listed as 10 of 10 and the survivor count (dose: 400.0 mg/kg/injection, schedule: Q01DX009 (ip), vehicle: Klucel (hydroxypropylcellulose) (HPC)) is 10 of 10.

Regarding `O=C1c2ccccc2C(=O)N1CCC[P+](c1ccccc1)(c1ccccc1)c1ccccc1`, the survivor count is, setting by setting: (dose: 1.56 mg/kg/injection, schedule: Q01DX009 (ip), vehicle: Klucel (hydroxypropylcellulose) (HPC)) 10 of 10; (dose: 3.12 mg/kg/injection, schedule: Q01DX009 (ip), vehicle: Klucel (hydroxypropylcellulose) (HPC)) 10 of 10; (dose: 6.25 mg/kg/injection, schedule: Q01DX009 (ip), vehicle: Klucel (hydroxypropylcellulose) (HPC)) 10 of 10; (dose: 12.5 mg/kg/injection, schedule: Q01DX009 (ip), vehicle: Klucel (hydroxypropylcellulose) (HPC)) 10 of 10; (dose: 25.0 mg/kg/injection, schedule: Q01DX009 (ip), vehicle: Klucel (hydroxypropylcellulose) (HPC)) 10 of 10.
